Values quoted from earlier work as cited in US20240148691A1, “Treatment of Hypertension-Related and Vascular Diseases” (The Medical College of Wisconsin, Inc., priority 2021, published 2024).
For at least one compound, name, drawing or mass did not settle the structure.

Conditions: cited from earlier work

## CC1(C)CC(C)(C)c2cc(NC(=S)Nc3ccc([N+](=O)[O-])cc3)ccc2S1 [SHetA2, Sulfur Heteroarotinoid A2]
  carcinogenicity: lack
  mutagenicity: lack
  pharmacokinetics: reasonable
  toxicity: lack
